These are yes or no findings as the source states them, for the method shown. In cells and extracts the contact can be indirect. Some binding calls cover weakened binding; strength is not graded here.
T1: Calnexin precursor (CANX) (human (endogenous in HeLa)) (UniProt P27824)
T1 sequence: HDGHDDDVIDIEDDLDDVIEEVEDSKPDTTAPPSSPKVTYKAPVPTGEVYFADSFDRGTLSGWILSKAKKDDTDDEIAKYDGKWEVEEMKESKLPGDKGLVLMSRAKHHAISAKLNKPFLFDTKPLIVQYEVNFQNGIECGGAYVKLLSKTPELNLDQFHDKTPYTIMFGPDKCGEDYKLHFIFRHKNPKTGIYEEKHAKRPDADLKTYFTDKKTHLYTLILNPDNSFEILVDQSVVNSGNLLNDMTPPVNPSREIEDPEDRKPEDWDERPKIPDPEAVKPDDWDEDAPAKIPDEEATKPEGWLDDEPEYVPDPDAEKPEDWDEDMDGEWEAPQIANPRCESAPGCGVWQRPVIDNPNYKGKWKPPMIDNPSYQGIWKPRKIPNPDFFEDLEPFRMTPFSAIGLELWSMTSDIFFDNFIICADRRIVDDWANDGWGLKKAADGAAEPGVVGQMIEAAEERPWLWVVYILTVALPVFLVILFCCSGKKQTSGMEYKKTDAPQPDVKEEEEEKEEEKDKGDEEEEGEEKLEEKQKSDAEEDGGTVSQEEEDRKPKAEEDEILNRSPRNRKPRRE

By UniProt entry, the sequences of proteins in these tests, tags left out. Residues count along the entry.
UniProt Q9H1A3, residues 19-318: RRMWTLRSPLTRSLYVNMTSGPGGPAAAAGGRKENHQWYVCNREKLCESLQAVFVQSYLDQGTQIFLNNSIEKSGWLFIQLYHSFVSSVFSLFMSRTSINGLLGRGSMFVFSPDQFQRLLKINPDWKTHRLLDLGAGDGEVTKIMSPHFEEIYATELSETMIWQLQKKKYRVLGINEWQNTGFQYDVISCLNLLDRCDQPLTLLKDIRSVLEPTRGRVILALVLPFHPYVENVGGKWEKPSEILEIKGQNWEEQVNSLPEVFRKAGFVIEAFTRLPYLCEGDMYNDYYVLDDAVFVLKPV


What was measured:
[1] = molecular target: T1, Calnexin precursor (CANX) (human (endogenous in HeLa)); experiment: co-IP; reverse IP: 10 ug anti-Calnexin antibody, 4 mg whole cell extract; immunoblot with anti-GFP; beads alone as control
GFP-METTL9 (human) = GFP-METTL9 (human) (UniProt Q9H1A3); experiment: co-IP; GFP-METTL9 or GFP precipitated with GFP trap beads from whole cell extract; immunoblot with anti-Calnexin

binding [1] | binding (GFP-METTL9 (human)) | Molecule
binds | – | GFP-METTL9 (from UniProt Q9H1A3 19-318)
– | binds | Calnexin precursor (CANX) (protein, UniProt P27824 21-592) HDGHDDDVIDIEDDLDDVIEEVEDSKPDTTAPPSSPKVTYKAPVPTGEVYFADSFDRGTLSGWILSKAKKDDTDDEIAKYDGKWEVEEMKESKLPGDKGLVLMSRAKHHAISAKLNKPFLFDTKPLIVQYEVNFQNGIECGGAYVKLLSKTPELNLDQFHDKTPYTIMFGPDKCGEDYKLHFIFRHKNPKTGIYEEKHAKRPDADLKTYFTDKKTHLYTLILNPDNSFEILVDQSVVNSGNLLNDMTPPVNPSREIEDPEDRKPEDWDERPKIPDPEAVKPDDWDEDAPAKIPDEEATKPEGWLDDEPEYVPDPDAEKPEDWDEDMDGEWEAPQIANPRCESAPGCGVWQRPVIDNPNYKGKWKPPMIDNPSYQGIWKPRKIPNPDFFEDLEPFRMTPFSAIGLELWSMTSDIFFDNFIICADRRIVDDWANDGWGLKKAADGAAEPGVVGQMIEAAEERPWLWVVYILTVALPVFLVILFCCSGKKQTSGMEYKKTDAPQPDVKEEEEEKEEEKDKGDEEEEGEEKLEEKQKSDAEEDGGTVSQEEEDRKPKAEEDEILNRSPRNRKPRRE
